Measurements taken from US20100113390A1, “OLIGOSACCHARIDES DERIVED FROM FUCOIDAN” (SUNTORY HOLDINGS LIMITED, priority 2007, published 2010).

Assay: Evaluation of quality of taste (sensory test by 4 panelists)
Conditions: 5% aqueous solution, ordinary temperature

CC1OC(O)C(OC2OC(C(=O)O)C(O)C(O)C2O)C(O)C1O [GF (I), α-D-GlcA-(1→2)-L-Fuc]
Quality of taste, summary of sensory test: colorless solution serving as a refreshing acidifier with a slight sweetness
Sensory test comment, panel A (panelist A, free comment): Refreshing
Sensory test comment, panel B (panelist B, free comment): Pleasant
Sensory test comment, panel C (panelist C, free comment): Sour
